Some results were stated once for a whole list of compounds, not compound by compound. At least one structure is not confirmed: it was looked up by name or label, or the drawing left a doubt.
Experiments:
Type in all cases: in vivo
Erysiphe graminis = Erysiphe graminis (protective action) on wheat seedlings; conditions: 160 ppm spray, wheat cv. Lita, evaluated 7 days after infection
Description: Erysiphe graminis (Protective Action)
30-40 wheat seedlings cv. “Lita” in the 1-leaf stage (distributed to two pots of ø7 cm) are sprayed thoroughly with a spray mixture prepared with a wettable powder of the active substance (with 160 ppm of active ingredient) and then cultured further in the greenhouse. One day after the treatment, the plants are dusted with conidia of Erysiphe graminis. The test is evaluated 7 days after the infection by determining the size of the leaf area covered in Erysiphe graminis as a percentage compared with the infected control.
Untreated, but infected control plants show a level of infection with Erysiphe of 100%.

Venturia inaequalis = Venturia inaequalis (curative action) on apple seedlings; conditions: 50 ppm spray, apple cv. Golden Delicious, evaluated 9-10 days after treatment
Description: Venturia inaequalis (Curative Action)
Two apple seedlings cv. “Golden Delicious” are sprayed with a conidia suspension of Venturia inaequalis and subsequently incubated at 18° C. and under dew-point conditions. After 24 hours, the plants are sprayed thoroughly from all sides with a spray mixture prepared with a wettable powder of the active substance (with 50 ppm of active ingredient). The treated apple seedlings are subsequently cultured further in the greenhouse. 9-10 days after the treatment, the test is evaluated by determining the leaf area covered in Venturia inaequalis as a percentage compared with the infected control.

Alternaria brassicae = Alternaria brassicae (protective action) on cabbage seedlings; conditions: 50 ppm spray, cabbage cv. Vorbote, evaluated 2-5 days after infection
Description: Alternaria brassicae (Protective Action)
4 cabbage seedlings, cv. “Vorbote”, in the 6-leaf stage, distributed to 2 pots, are sprayed thoroughly with a spray mixture prepared with a wettable powder of the active substance (with 50 ppm of active ingredient) and subsequently cultured further in a controlled-environment cabinet at 19° C. and with 16 hours illumination per day. Two days after the treatment, the plants are infected by spraying with an aqueous conidia suspension (approx. 30,000 conidia/ml). The cabbage plants are then incubated at 24-26° C., under dew-point conditions and with a photoperiod of 16 hours. The test is evaluated 2-5 days after the infection by determining the leaf area infected with Alternaria brassicae as a percentage compared with the infected, untreated control.

Puccinia coronata = Puccinia coronata (curative action) on oat seedlings; conditions: 160 ppm spray, oat cv. Selma, evaluated 9-10 days after infection
Description: Puccinia coronata (Curative Action)
30-40 oat seedlings cv. “Selma” (distributed to 2 pots of ø7 cm) are infected with Puccinia coronata by spraying with an aqueous spore suspension (approx. 150,000 uredospores/ml). The test plants are subsequently incubated for 24 hours at 20-24° C. and under dew-point conditions. The oat seedlings are then sprayed thoroughly from all sides with a spray mixture prepared with a wettable powder of the active substance (with 160 ppm of active ingredient). They are cultured further in a controlled-environment cabinet at 19° C. and with a photoperiod of 14 hours. The test is evaluated 9-10 days after infection by determining the leaf area infected with Puccinia coronata as a percentage compared with the infected, untreated control.

Cercospora arachidicola = assay: Action against Cercospora arachidicola on peanut plants (curative action); conditions: 160 ppm spray, peanut cv. Tamnut, evaluated 12 days after treatment
Description: Action Against Cercospora arachidicola on Peanut Plants (Curative Action)
Two peanut plants cv. “Tamnut” in the 4-leaf stage are sprayed with a conidia suspension of Cercospora arachidicola (approx. 200,000 conidia/ml) and subsequently incubated at 25-26° C. and under dew-point conditions. After two days, the plants are sprayed thoroughly from all sides with a spray mixture prepared with a wettable powder of the active substance (with 160 ppm of active ingredient). The treated plants are subsequently incubated in a controlled-environment cabinet under the following conditions: 25-27° C. and 80% atmospheric humidity during the day, 20° C. and dew-point conditions during the night; the photoperiod in each case is 16 hours. 12 days after the treatment, the test is evaluated by determining the leaf area infected with Cercospora arachidicola as a percentage compared with the infected control.

Plasmopara viticola = Plasmopara viticola (protective action) on grapevine seedlings; conditions: 160 ppm spray, grapevine cv. Riesling x Sylvaner, day 6 after infection
Description: Plasmopara viticola (Protective Action)
2 grapevine seedlings cv. Riesling×Sylvaner, each in the 4-5 leaf stage, are sprayed thoroughly from all sides with a spray mixture prepared with a wettable powder of the active substance (with 160 ppm of active ingredient) and subsequently cultured further in a controlled-environment cabinet at 17° C., 70-80% relative atmospheric humidity and with a photoperiod of 16 hours. After 6 days, the test plants are infected by spraying the undersides of the leaves with zoosporangia of Plasmopara viticola, suspended in distilled water (approx. 300,000 sporangia/ml). The grapevine plants are then incubated as follows: 1 day at 22° C. and under dew-point conditions in the dark and subsequently 4 days in the greenhouse. To induce fructification of Plasmopara viticola, the grapevines are transferred to a controlled-environment cabinet with dew-point conditions at 22° C. on day 5 after the infection.
The tests are carried out in each case on day 6 after the infection by determining the leaf area infected with Plasmopara viticola as a percentage compared with the infected, untreated control.

Row | SMILES | action (leaf area covered in Erysiphe graminis as a percentage compared with the infected control) (Erysiphe graminis) | action (leaf area covered in Venturia inaequalis as a percentage compared with the infected control) (Venturia inaequalis) | action (leaf area infected with Alternaria brassicae as a percentage compared with the infected, untreated control) (Alternaria brassicae) | action (leaf area infected with Puccinia coronata as a percentage compared with the infected, untreated control) (Puccinia coronata) | action (leaf area infected with Cercospora arachidicola as a percentage compared with the infected control) (Cercospora arachidicola) | action (leaf area infected with Plasmopara viticola as a percentage compared with the infected, untreated control) (Plasmopara viticola)
1 | C=C(C(=O)OC)c1ccccc1CON=C(C)c1cccc(C(F)(F)F)c1 [Compound 1, methyl 2-[α-{-[(E/Z-α-methyl-3-trifluoromethylbenzyl)imino]oxy}-o-tolyl]acrylate] | more than 75% | more than 75% | more than 75% |  |  | 
2 | COC(=O)C(=CSC)c1ccccc1CON=C(C)c1cccc(C(F)(F)F)c1 [Compound 3, methyl 2-[α-{[(α-methyl-3-trifluoromethylbenzyl)imino]oxy}-o-tolyl]-3-methylthioacrylate] | more than 75% | more than 75% | more than 75% | more than 75% | more than 75% | more than 75%
3 | CON=C(C(=O)OC)c1ccccc1CON=C(C)c1ccc2ccccc2c1 [Compound 4, methyl 2-[α-{[(1-[β-naphthyl]ethyl)imino]oxy}-o-tolyl]glyoxylate O-methyl oxime] | more than 75% |  | more than 75% |  |  | more than 75%
4 | C=C(C(=O)OC)c1ccccc1CON=Cc1ccc(Cl)cc1 [Compound 5] | more than 75% |  |  |  |  | 
5 | C=C(C(=O)OC)c1ccccc1CON=C(C)c1ccc2c(c1)OCO2 [Compound 7A] | more than 75% | more than 75% |  |  |  | 
6 | COC(=O)C(=CSC)c1ccccc1CON=C(C)c1ccc(Cl)c(Cl)c1 [Compound 8] | more than 75% | more than 75% | more than 75% | more than 75% | more than 75% | more than 75%
7 | COC(=O)C(=CSC)c1ccccc1CON=C(C)c1ccc2ccccc2c1 [Compound 9] | more than 75% | more than 75% | more than 75% | more than 75% | more than 75% | more than 75%
8 | COC(=O)C(=CSC)c1ccccc1CON=C(C)c1ccccn1 [Compound 11] | more than 75% |  |  | more than 75% | more than 75% | more than 75%
9 | CON=C(C(=O)OC)c1ccccc1CON=C1CCCc2ccccc21 [Compound 16] | more than 75% |  |  |  |  | 
10 | CON=C(C(=O)OC)c1ccccc1CON=C(C)c1ccc2c(c1)OCCO2 [Compound 43] |  |  |  |  |  | more than 75%
11 | CON=C(C(=O)OC)c1ccccc1CON=C(c1ccc2c(c1)OCCO2)C1CC1 [Compound 44] |  | more than 75% |  |  | more than 75% | 
12 | CON=C(C(=O)OC)c1ccccc1CON=C(C)c1ccc2c(c1)OC(F)(F)O2 [Compound 45] |  |  |  |  |  | more than 75%
13 | CON=C(C(=O)OC)c1ccccc1CON=C(C)c1cc2c(cc1[N+](=O)[O-])OCO2 [Compound 55] |  |  | more than 75% |  |  | 
14 | CON=C(C(=O)OC)c1ccccc1CON=C(C)c1ccc2c(c1)OCCCO2 [Compound 61] |  | more than 75% |  |  |  | more than 75%
15 | CON=C(C(=O)OC)c1ccccc1CON=C(C)c1ccc2c(c1)OC(C)(C)O2 [Compound 62] |  |  |  |  |  | more than 75%
16 | CON=C(C(=O)OC)c1ccccc1CON=C(C)c1ccc(C2(C)CC2(Cl)Cl)cc1 (centres unmarked) [Compound 86] | more than 75% |  |  |  |  | 
17 | CON=C(C(=O)OC)c1ccccc1CON=C(c1ccc2c(c1)OC(F)(F)O2)C1CC1 [Compound 101] |  |  |  |  | more than 75% | 
18 | COCC(=NOCc1ccccc1C(=NOC)C(=O)OC)c1ccc2c(c1)OC(F)(F)O2 [Compound 102] |  |  |  |  |  | more than 75%
19 | CON=C(C(=O)OC)c1ccccc1CON=C(C)c1ccc(OCC(F)(F)F)cc1 [Compound 107] |  |  |  | more than 75% |  | more than 75%
20 | CON=C(C(=O)OC)c1ccccc1CON=C(C)c1ccc2c(c1)COCO2 [Compound 117] |  | more than 75% |  |  |  | 
21 | CON=C(C(=O)OC)c1ccccc1CON=C(C)c1ccc(Cl)s1 [Compound 139] |  | more than 75% |  |  |  | 
22 | C=C(C(=O)OCC)c1ccccc1CON=C(C)c1ccc(Cl)c(Cl)c1 [Compound 154] |  | more than 75% |  |  |  | 
23 | C=C(C(=O)OCC)c1ccccc1CON=C(C)c1ccc2ccccc2c1 [Compound 157] |  | more than 75% | more than 75% |  |  | 

From patent US6355634B1, “Aromatic compounds” (Bayer Aktiengesellschaft, priority 1990, dated 2002)
